Reference: paper doi:10.1101/2020.04.03.023721
No constants are given. Whether binding was seen depends on the method and setting. In cells and extracts the contact can be indirect. Some results given as binding are weak or reduced against the parent protein; the word gives no strength. For some of these results: Sequences can lack the tags named with a protein.

The chains behind the UniProt entries cited, without tags or fusion partners. Where a name states a change or a piece, a line headed by the entry shows the natural chain unless it says otherwise. Residues count along the entry.
UniProt P49023, whole entry: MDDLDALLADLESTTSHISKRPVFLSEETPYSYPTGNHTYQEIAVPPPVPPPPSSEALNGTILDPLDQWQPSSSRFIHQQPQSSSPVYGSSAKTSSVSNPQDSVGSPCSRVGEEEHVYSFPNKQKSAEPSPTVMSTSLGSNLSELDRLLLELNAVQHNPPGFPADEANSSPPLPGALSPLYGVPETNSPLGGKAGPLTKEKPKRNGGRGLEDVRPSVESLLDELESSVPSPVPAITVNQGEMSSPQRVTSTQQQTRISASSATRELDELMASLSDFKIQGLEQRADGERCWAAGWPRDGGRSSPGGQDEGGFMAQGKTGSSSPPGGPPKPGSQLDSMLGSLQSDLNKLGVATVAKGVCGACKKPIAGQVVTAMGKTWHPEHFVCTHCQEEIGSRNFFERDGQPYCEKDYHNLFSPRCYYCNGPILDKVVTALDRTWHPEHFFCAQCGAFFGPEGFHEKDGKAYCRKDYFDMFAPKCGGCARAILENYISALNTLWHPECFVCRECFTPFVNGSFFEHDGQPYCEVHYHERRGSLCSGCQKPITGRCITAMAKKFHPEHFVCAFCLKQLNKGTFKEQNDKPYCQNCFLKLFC
UniProt Q96P20, whole entry: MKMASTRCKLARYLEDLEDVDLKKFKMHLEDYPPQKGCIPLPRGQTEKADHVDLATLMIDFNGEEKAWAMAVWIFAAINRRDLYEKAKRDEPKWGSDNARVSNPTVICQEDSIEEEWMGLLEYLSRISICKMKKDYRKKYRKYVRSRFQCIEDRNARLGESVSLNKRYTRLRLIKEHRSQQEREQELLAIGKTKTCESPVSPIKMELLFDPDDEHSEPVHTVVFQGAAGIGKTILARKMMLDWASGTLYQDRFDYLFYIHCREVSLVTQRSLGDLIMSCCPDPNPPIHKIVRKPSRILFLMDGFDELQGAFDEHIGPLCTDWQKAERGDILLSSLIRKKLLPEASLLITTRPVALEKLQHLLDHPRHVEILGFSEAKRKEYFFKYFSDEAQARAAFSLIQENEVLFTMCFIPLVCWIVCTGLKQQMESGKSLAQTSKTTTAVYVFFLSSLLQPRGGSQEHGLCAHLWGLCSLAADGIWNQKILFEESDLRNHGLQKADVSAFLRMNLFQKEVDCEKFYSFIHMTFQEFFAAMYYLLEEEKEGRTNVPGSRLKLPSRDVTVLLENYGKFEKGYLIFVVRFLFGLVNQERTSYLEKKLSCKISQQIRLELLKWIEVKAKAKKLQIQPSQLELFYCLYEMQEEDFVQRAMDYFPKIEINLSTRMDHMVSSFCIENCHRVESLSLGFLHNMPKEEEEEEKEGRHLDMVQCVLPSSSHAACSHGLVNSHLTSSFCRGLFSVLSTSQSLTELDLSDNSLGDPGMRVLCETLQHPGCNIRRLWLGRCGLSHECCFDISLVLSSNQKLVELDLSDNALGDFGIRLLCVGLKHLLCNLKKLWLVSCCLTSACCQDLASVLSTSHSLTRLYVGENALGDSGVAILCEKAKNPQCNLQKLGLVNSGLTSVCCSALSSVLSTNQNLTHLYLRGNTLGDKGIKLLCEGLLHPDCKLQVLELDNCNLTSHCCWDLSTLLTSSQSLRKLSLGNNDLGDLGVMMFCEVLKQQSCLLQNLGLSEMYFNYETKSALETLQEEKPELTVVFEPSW
UniProt Q96P20, 1-93: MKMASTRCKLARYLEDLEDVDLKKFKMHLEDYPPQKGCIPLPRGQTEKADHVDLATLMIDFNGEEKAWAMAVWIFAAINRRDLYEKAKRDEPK
UniProt Q8R4B8, whole entry: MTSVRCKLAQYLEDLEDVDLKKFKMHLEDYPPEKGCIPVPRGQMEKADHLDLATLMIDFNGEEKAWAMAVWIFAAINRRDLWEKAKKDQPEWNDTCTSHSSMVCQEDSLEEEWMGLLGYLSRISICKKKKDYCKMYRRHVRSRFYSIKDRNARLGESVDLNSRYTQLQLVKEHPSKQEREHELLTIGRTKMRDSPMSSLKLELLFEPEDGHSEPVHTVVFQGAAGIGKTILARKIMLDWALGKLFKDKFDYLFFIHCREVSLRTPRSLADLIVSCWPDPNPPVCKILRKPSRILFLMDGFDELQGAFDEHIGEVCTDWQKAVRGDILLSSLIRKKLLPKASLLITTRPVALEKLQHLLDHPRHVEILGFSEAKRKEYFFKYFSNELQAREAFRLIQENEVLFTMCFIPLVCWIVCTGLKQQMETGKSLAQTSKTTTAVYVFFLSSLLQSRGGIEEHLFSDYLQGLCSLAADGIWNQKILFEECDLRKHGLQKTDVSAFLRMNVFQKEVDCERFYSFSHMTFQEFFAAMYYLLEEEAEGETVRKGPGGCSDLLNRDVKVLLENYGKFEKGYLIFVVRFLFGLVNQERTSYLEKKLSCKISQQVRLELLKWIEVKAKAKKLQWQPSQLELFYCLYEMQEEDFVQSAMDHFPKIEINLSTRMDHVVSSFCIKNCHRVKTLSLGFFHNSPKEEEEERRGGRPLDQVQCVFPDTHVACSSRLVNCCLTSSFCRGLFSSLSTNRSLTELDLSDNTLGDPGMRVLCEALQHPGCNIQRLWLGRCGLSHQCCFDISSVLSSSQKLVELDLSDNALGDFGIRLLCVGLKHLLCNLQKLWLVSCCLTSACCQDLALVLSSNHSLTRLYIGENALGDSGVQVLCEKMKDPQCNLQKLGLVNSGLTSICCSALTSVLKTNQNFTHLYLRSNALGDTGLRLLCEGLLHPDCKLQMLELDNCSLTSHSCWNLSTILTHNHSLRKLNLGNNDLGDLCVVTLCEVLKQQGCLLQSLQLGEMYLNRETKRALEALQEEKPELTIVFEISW
UniProt Q8VI36, whole entry: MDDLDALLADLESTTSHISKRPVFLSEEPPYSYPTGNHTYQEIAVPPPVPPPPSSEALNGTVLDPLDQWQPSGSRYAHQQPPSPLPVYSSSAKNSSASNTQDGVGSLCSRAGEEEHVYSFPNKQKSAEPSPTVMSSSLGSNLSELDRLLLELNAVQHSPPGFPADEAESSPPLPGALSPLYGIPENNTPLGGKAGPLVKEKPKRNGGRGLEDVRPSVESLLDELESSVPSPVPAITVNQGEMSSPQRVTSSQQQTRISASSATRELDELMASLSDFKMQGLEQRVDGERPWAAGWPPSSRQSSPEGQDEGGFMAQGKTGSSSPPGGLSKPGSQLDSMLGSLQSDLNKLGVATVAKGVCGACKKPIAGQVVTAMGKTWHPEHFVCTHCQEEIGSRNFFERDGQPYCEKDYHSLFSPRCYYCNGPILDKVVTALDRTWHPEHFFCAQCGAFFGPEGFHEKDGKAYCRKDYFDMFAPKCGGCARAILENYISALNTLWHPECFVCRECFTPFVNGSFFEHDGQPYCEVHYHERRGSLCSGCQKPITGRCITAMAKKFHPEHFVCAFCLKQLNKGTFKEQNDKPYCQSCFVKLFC

Assays:
GST-Paxillin (human) = GST-Paxillin (human) (UniProt P49023); experiment: pull-down
[1] = biological target: T1, Flag-UPS13(1-300) (human) (UniProt Q92995); experiment: co-IP
T1 sequence: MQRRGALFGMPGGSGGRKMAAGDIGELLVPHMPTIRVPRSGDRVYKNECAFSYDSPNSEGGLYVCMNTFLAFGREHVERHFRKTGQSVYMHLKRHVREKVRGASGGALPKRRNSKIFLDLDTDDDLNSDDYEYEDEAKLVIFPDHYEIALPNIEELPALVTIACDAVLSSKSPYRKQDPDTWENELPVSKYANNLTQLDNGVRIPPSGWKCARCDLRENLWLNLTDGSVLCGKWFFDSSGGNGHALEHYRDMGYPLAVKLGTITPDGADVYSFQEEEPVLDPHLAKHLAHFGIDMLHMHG

[2] = biological target: T2, Flag-UPS13(301-863) (human) (UniProt Q92995); experiment: co-IP
T2 sequence: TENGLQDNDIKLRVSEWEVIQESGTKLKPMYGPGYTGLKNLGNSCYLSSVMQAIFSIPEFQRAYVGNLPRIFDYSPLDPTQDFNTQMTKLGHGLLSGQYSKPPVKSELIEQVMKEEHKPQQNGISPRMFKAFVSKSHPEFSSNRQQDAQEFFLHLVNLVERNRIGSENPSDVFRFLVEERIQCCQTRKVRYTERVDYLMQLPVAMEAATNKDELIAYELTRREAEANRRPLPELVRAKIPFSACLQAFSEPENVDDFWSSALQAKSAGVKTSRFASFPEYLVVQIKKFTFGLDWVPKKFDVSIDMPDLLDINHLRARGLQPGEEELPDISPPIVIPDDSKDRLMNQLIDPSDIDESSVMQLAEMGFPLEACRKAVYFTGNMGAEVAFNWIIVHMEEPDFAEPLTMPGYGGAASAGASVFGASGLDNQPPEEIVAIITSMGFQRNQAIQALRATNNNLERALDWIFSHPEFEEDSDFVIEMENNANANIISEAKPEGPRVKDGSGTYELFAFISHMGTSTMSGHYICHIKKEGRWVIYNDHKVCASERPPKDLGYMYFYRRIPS

[3] = biological target: T3, Flag-UPS13(301-624) (human) (UniProt Q92995); experiment: co-IP
T3 sequence: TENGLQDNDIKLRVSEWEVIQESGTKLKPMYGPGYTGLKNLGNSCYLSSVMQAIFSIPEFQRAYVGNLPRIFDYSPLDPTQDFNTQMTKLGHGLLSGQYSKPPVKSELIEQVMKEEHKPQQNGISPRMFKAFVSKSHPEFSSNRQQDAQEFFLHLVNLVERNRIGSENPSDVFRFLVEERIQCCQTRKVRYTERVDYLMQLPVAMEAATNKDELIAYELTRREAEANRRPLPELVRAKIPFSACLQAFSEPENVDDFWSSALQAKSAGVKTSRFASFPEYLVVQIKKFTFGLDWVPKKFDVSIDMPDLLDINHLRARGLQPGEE

[4] = biological target: T4, Flag-UPS13(625-863) (human) (UniProt Q92995); experiment: co-IP
T4 sequence: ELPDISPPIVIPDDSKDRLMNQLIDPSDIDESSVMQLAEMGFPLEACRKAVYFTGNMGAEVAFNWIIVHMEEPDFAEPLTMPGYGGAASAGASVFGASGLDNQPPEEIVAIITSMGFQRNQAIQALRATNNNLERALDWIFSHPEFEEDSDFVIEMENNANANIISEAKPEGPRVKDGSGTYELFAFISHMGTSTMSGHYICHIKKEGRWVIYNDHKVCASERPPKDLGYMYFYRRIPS

Flag-UPS13 (human) = biological target: T5, Flag-UPS13 (human) (UniProt Q92995); experiment: co-IP
T5 sequence: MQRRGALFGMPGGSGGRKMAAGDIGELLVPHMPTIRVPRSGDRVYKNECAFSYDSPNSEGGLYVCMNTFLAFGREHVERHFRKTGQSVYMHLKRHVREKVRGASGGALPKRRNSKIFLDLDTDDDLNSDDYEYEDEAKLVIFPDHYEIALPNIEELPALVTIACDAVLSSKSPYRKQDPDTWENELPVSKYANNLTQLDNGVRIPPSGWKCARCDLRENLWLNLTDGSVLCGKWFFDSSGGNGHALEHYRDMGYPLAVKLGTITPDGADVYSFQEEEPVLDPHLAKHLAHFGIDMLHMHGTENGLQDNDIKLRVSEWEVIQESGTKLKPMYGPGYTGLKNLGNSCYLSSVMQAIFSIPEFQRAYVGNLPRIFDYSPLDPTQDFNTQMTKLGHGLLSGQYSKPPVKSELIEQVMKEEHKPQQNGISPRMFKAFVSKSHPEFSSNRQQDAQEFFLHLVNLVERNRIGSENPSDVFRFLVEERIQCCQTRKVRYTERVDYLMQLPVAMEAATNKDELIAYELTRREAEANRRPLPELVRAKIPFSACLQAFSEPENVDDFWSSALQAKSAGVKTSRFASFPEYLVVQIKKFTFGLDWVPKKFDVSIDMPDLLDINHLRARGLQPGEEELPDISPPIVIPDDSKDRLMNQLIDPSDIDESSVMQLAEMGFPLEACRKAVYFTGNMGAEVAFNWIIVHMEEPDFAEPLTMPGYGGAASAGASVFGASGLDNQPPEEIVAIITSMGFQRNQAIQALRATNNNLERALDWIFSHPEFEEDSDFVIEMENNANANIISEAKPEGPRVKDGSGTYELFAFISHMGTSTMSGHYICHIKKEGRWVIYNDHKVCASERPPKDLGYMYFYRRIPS

Flag-NLRP3 (human) = Flag-NLRP3 (human) (UniProt Q96P20); experiment: co-IP
Flag-P2X7 = biological target: T6, Flag-P2X7 (UniProt Q99572); experiment: co-IP
T6 sequence: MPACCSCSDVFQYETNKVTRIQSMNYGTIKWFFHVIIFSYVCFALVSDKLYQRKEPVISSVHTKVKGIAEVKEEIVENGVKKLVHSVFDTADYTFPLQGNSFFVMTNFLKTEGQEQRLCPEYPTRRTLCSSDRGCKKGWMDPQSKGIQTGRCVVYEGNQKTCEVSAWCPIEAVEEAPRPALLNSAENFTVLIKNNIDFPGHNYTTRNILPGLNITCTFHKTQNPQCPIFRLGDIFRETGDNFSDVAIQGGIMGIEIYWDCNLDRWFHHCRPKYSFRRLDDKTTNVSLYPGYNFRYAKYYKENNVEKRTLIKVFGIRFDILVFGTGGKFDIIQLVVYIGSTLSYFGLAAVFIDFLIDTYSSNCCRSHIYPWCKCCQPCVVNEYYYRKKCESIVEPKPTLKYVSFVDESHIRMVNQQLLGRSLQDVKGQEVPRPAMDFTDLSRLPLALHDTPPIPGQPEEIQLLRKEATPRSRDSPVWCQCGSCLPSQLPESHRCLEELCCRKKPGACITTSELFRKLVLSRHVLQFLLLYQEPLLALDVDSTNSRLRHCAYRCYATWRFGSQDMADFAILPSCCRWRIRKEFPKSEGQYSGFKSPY

[5] = biological target: NLRP3 (endogenous, THP-1 macrophages) (human (endogenous in THP-1)) (UniProt Q96P20); experiment: co-IP
[6] = biological target: T7, P2X7 (endogenous, THP-1 macrophages) (human (endogenous in THP-1)) (UniProt Q99572); experiment: co-IP
T7 sequence: T6 sequence

[7] = biological target: NLRP3 (endogenous, mouse BMDMs) (mouse (endogenous in BMDMs of C57BL/6 mice)) (UniProt Q8R4B8); experiment: co-IP

Flag-NLRP3 (from UniProt Q96P20 1-1036)
binding (GST-Paxillin (human)): binds

HA-NLRP3 (from UniProt Q96P20 1-1036)
binding [1]: no binding
binding [2]: binds
binding [3]: no binding
binding [4]: binds
binding (Flag-UPS13 (human)): binds

HA-PYRIN (from UniProt Q96P20 1-93) (domain or fragment)
binding (Flag-UPS13 (human)): no binding

HA-Paxillin(Y31A) (from UniProt P49023 1-591)
binding (Flag-NLRP3 (human)): binds
binding (Flag-P2X7): binds
binding (Flag-UPS13 (human)): no binding

HA-Paxillin(Y118A) (from UniProt P49023 1-591)
binding (Flag-NLRP3 (human)): no binding
binding (Flag-P2X7): binds
binding (Flag-UPS13 (human)): binds

Paxillin (endogenous, THP-1 macrophages) (from UniProt P49023 1-591)
binding [5]: binds
binding [6]: binds

Paxillin (endogenous, mouse BMDMs) (from UniProt Q8VI36 1-591)
binding [7]: binds
